Experimental data from US20050069542A1 (Human Genome Sciences, published 2005).
Residue numbers refer to the chain shown, from its start. Results are given in words; binding and its absence hold for the method and conditions named. Some binding calls cover weakened binding; strength is not graded here. Each block holds one binder with its values, some of them ahead of it.

By UniProt entry, the sequences of proteins in these tests, tags left out. Where a name states a change or a piece, a line headed by the entry shows the natural chain unless it says otherwise.
UniProt Q9HD89: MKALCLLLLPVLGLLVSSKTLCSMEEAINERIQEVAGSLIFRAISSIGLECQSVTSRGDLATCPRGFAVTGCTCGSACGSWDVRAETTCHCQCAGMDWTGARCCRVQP

Assays:
[1] = molecular target: Flag-tagged recombinant human GMAD (human) (UniProt Q9HD89); experiment: phage ELISA
[2] = molecular target: Flag-tagged recombinant human GMAD (human) (UniProt Q9HD89); experiment: phage display selection of scFvs

B2: GMBC613 (scFv)
scFv: KVQLVESGGGLVQPGGSLRLSCAASGFTISSHWMSWVRQAPGKGLEWVASIKQDGREKHFVDSVKGRFSISRDNAKNSLYLQMNSLRTEDTAVYYCARETYGGYYYYFMDVWGKGTLVTVSSGGGGSGGGGSGGGGSSELTQDPAVSVALGQTVRITCQGDSLRSYYASWYQQKPGQAPVLVIYGKNNRPSGIPDRFSGSSSGNTASLTITGAQAEDEADYYCNSRDSSGNHVVFGGGTKLTVLG
binding [1]: binds
binding [2]: binds

B3: GMBC692 (scFv)
scFv: EVQLVQSGGGLVKPGGSLRLSCAASGFTFSDAWMNWVRQAPGKGLEWVGRIKSKGSGGTIDYAAPVKDRFTISRDDSKNTLYLQMNSLKTEDTALYYCTWDWDFYYGMNVWGRGTLVTVSSGGGGSGGGGSGGGGSQSVLTQPASVSGSPGQSITISCTGTSSDVGGYNYVSWYQQHPGKAPKLMIYEGSKRPSGVSNRFSGSKSGNTASLTISGLQAEDEADYYCSSYTTRSTRVFGGGTKLTVLG
binding [1]: binds
binding [2]: binds

B6: GMBC615 (scFv)
scFv: B3 scFv with Q6E, T28K, R113K, T118A
binding [1]: binds
binding [2]: binds

B8: GMBC620 (scFv)
scFv: B3 scFv with Q6E, L116M
binding [1]: binds
binding [2]: binds

B9: GMBC634 (scFv)
scFv: B3 scFv with E1Q, R113Q
binding [1]: binds
binding [2]: binds

B10: GMBC607 (scFv)
scFv: B3 scFv with T80M, Q84E, R113Q, L116M, G167D
binding [1]: binds
binding [2]: binds

B11: GMBC645 (scFv)
scFv: B3 scFv with Q6E, A24G, T28K, D61E, T71I, N79D, K242E
binding [1]: binds
binding [2]: binds

Now from value to binder:

binding [1]: binds
binding [2]: binds
B1: GMBC603 (scFv)
scFv: QVQLVQSGGGVVRPGGSLRLSCAASGFTFDDYGMSWVRQAPGKGLEWVSGINWNGGSTGYADSVKGRFTISRDNAKNSLYLQMNSLRAEDTALYYCAKDLNYDFWSGSGMDVWGRGTLVTVSSGGGGSGGGGSGGGGSQSVLTQPASVSGSPGQSITISCTGTSSDVGGYNYVSWYQQHPGKAPKLMIYEGSKRPSGVSNRFSGSKSGNTASLTISGLQAEDEADYYCSSYTTRSTRVFGGGTKLTVLG

binding [1]: binds
binding [2]: binds
B4: GMBC605 (scFv)
scFv: B3 scFv with E1Q, A23E, A24T, T28K

binding [1]: binds
binding [2]: binds
B5: GMBC625 (scFv)
scFv: B3 scFv with G55R, N79D, L81M, R113Q, L116M, S201F

binding [1]: binds
binding [2]: binds
B7: GMBC614 (scFv)
scFv: B3 scFv with L116M

binding [1]: binds
binding [2]: binds
B12: GMBC616 (scFv)
scFv: EVQLVESGGGLVKPGGSLRLSCAASGFTFSDAWMNWVRQAPGKGLEWVGRIKSKGSGGTTDYAAPVKDRFTISRDDSENTLYLQMNSLKTEDTAVYYCTWDHSYYYDMAVWGRGTLVTVSSGGGGSGGGGSGGGGSQSVLTQPPFVSGSPGQSITISCTGTSSDVGGYNYVSWYQQHPGKAPKLMIYEGSKRPSGVSNRFSGSKSGNTASLTISGLQAEDEADYYCSSYTTRSTRVFGGGTKLTVLG
